Experimental data published in PMC5296733, “Functional Coupling of Human Microphysiology Systems: Intestine, Liver, Kidney Proximal Tubule, Blood-Brain Barrier and Skeletal Muscle” (Scientific Reports, 2017).

System: vascularized proximal tubule kidney (VPTK) module
Test: Vascularized proximal tubule kidney (VPTK) module secretion
Conditions: terfenadine experiment, liver-conditioned media; 0-6 h

SMILES: CC(C)(C(=O)O)c1ccc(C(O)CCCN2CCC(C(O)(c3ccccc3)c3ccccc3)CC2)cc1 (centres unmarked) [Fexofenadine, fexofenadine, reference compound]
- Concentration in kidney plasma (vascular) efflux: 10.2 ± 3.6 ng/mL
- Concentration in kidney proximal tubule lumen: 0.1 ± 0.1 ng/mL
